Assay results published in PubChem BioAssay AID504467 (National Center for Advancing Translational Sciences (NCATS), 2011).
About 7,700 (2.3%) of roughly 330,000 compounds were called active. The shares of active, inactive and inconclusive entries below differ from those in the screen. The call rests on the fitted dose curve; in most records, active means well fitted inhibition curve with a large enough effect; inconclusive means small, poorly fitted or top-dose-only effect, or effect the other way; inactive means flat fitted curve, though single readings scatter. Potencies of inconclusive entries are doubtful fits and often do not repeat.
Potency means the concentration at half of the fitted maximal effect.

Test: qHTS screen for small molecules that inhibit ELG1-dependent DNA repair in human embryonic kidney (HEK293T) cells expressing luciferase-tagged ELG1; further: nearly all actives have a fitted effect of over 55% in size
Settings: HEK293T ELG1-luciferase reporter, luminescence, 16 h, DNA damage induced by 5-fluorouridine; series mostly up to 46.1 µM
Summary of the method: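 DMSO vehicle served as the neutral condition. Each well held 2,000 cells given 5-fluorouridine plus compound; after 16 hr at 37 °C/5% CO2, ONE-Glo was added and luciferase measured 30 min later.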
For `O=C(COc1ccc(Cl)c(Cl)c1)NC1CCS(=O)(=O)C1` (stereo not given), the Potency was inconclusive: 29.1 µM [activator, partial curve, poor fit]. In the case of `O=C(Oc1cc(=O)oc2c1c(=O)n1c3c(cccc23)CC1)c1ccc(F)cc1`, the Potency is reported as “inactive”. In the case of `O=C(NCCCN1CCOCC1)c1cc(Cl)ccc1OCc1ccccc1`, the Potency is reported as “inactive”. With `COC(=O)c1c(NC(=O)c2cccc(N3C(=O)CCC3=O)c2)sc2c1CCN(C(C)=O)C2` the Potency was “inactive”. For `CCOc1ccc(S(=O)(=O)NCc2cccnc2)cc1C(C)C`, the Potency was “inactive”. With `Cc1nc(NCCNC(=O)c2ccco2)c2c(C)c(C)sc2n1` the Potency was “inactive”. With `Cc1ccc(S(=O)(=O)NC(=O)Nc2c(C)cccc2C)cc1` the Potency was “inactive”. With `O=C(NC(=S)N1CCN(Cc2ccc3c(c2)OCO3)CC1)c1cccc(Br)c1` the Potency was “inactive”. For `CCOc1ccc(C(C)=O)cc1COc1ccc(C)nc1[N+](=O)[O-]`, the Potency was “inactive”. In the case of `O=C(Nc1ccc(S(=O)(=O)NC2=NCCCCC2)cc1)c1cccc(S(=O)(=O)N2CCOCC2)c1`, the Potency is reported as inconclusive: 29.1 µM [inhibitor, single point]. In the case of `O=C(CNc1ccccc1F)Nc1cccc(S(=O)(=O)N2CCCCC2)c1`, the Potency is reported as “inactive”. With `COc1ccc(Cc2nnc(SCC(=O)Nc3ccc(N4CCOCC4)cc3)n2C)cc1` the Potency was “inactive”. For `CN(C)c1cc(-c2ccccc2)nc(-c2ccccc2)n1`, the Potency was inconclusive: 14.1 µM [activator, single point]. With `CC1CCN(Cc2cc(=O)oc3ccc4ccccc4c23)CC1` the Potency was inconclusive: 5.8 µM [activator, single point]. For `CC(C)c1ccc(-c2nn(-c3ccccc3)cc2C2C(C#N)=C(N)OC3=C2C(=O)CC(C)(C)C3)cc1` (stereo not given), the Potency was inconclusive: 32.6 µM [activator, partial curve, poor fit]. With `O=c1c2[nH]c3ccccc3c2ncn1CCN1CCOCC1` the Potency was inconclusive: 16.4 µM [activator, partial curve, poor fit]. In the case of `Cc1c(S(=O)(=O)N(C)C2CCCCC2)c(=O)n(C)c(=O)n1C`, the Potency is reported as “inactive”. For `COCCn1c(SCC(=O)NC2(C#N)CCCCC2)nc2ccccc2c1=O`, the Potency was “inactive”. With `COCCn1c(=O)[nH]c(=O)c2c(C(F)(F)F)cc(-c3cccs3)nc21` the Potency was inconclusive: 20.6 µM [activator, single point]. For `CC(Sc1cccc[n+]1[O-])C(=O)NC1CCCCC1C` (stereo not given), the Potency was inconclusive: 20.6 µM [activator, partial curve, poor fit]. With `COc1ccccc1CNC(=O)c1cc(S(=O)(=O)N2CCCC2)cn1C` the Potency was “inactive”. In the case of `CCCCCOc1ccc(NC(=O)C(=O)NCCCn2ccnc2)cc1`, the Potency is reported as inconclusive: 20.6 µM [inhibitor, single point]. With `O=C(O)c1ccc2c(c1)N(Cc1ccccc1F)C(=O)c1ccccc1S2=O` (stereo not given) the Potency was “inactive”. With `O=C(Nc1ccccc1C(=O)Nc1ccc2c(c1)OCO2)c1ccco1` the Potency was inconclusive: 6.31 µM [inhibitor, full curve, poor fit]. For `COc1ccc(C(=O)N/C(=C/c2ccc(Cl)cc2)C(=O)Nc2ccc(C(=O)O)cc2)cc1`, the Potency was “inactive”. With `COc1ccc(CNC(=O)CSc2n[nH]c(C)c2[N+](=O)[O-])cc1` the Potency was “inactive”. For `COc1cc2sc(-c3ccc(S(C)(=O)=O)cc3)c(C(=O)NCCCCO)c2cc1OC`, the Potency was inconclusive: 8.2 µM [inhibitor, partial curve, poor fit]. With `O=C(NC(Nc1nc2ccc([N+](=O)[O-])cc2s1)(C(F)(F)F)C(F)(F)F)c1cccnc1` the Potency was inconclusive: 1.3 µM [inhibitor, full curve, poor fit]. For `COc1ccccc1C(=O)Nc1ccc2c(c1)nc1n2CCSC1`, the Potency was inconclusive: 6.51 µM [activator, partial curve]. In the case of `CCCn1c(O)c(C=Nc2ccccc2)sc1=S`, the Potency is reported as inconclusive: 16.4 µM [activator, partial curve, poor fit]. For `Cc1ccc(O)c(NC(=O)c2ccco2)c1`, the Potency was inconclusive: 18.4 µM [activator, partial curve]. For `Cc1ccc(C(=O)NC2CCCCCCC2)cc1S(=O)(=O)N1CCOCC1`, the Potency was inconclusive: 5.8 µM [activator, partial curve]. In the case of `CCOc1ccc2cc(C#N)c(SCC(=O)N3CCC(C)CC3)nc2c1`, the Potency is reported as inconclusive: 23.1 µM [inhibitor, single point]. With `COc1ccccc1CNC(=O)C1CCN(c2ncnc3c2nc2n3CCCCC2)CC1` the Potency was inconclusive: 11.6 µM [inhibitor, partial curve, poor fit]. With `COc1ccccc1CCNS(=O)(=O)CCNC(=O)c1ccc2c(c1)OCO2` the Potency was inconclusive: 25.9 µM [activator, partial curve, poor fit]. In the case of `C/C(=N\NC(=S)Nc1ccc(F)cc1)C1CC1`, the Potency is reported as inconclusive: 5.8 µM [activator, single point]. For `Cc1ccc(NC(=O)C2CCN(S(=O)(=O)c3cccs3)CC2)cc1C`, the Potency was inconclusive: 29.1 µM [inhibitor, single point]. With `CCCc1nc2sc(C(=O)OCC)c(N)c2c2c1COC(C)(C)C2` the Potency was “inactive”. For `Cc1cc(C)cc(C(=O)NC(CC(N)=O)c2ccc(N3CCN(c4ccccc4)CC3)c([N+](=O)[O-])c2)c1` (stereo not given), the Potency was “inactive”. With `CN1CCN(CC#CCC(O)(c2ccccc2)c2ccccc2)CC1` the Potency was inconclusive: 29.1 µM [activator, single point]. For `C/C(=N\NC(=O)c1cc(C(C)C)[nH]n1)c1ccco1`, the Potency was inconclusive: 2.59 µM [activator, full curve]. With `COc1ccc(/C=N/NC(=O)c2ccc(COc3cccc4cccnc34)cc2)cc1OC` the Potency was inconclusive: 29.1 µM [inhibitor, single point]. With `CC(C)(C)c1ccc(C(=O)N2CCN(c3nc4ccccc4o3)CC2)cc1` the Potency was inconclusive: 8.2 µM [inhibitor, partial curve]. In the case of `Cn1c(CCCOc2ccc(Cl)cc2Cl)nnc1SCC(=O)Nc1nccs1`, the Potency is reported as inconclusive: 13 µM [inhibitor, partial curve, poor fit]. With `COc1ccc(S(=O)(=O)N(CC(=O)NC2CCCCC2)c2ccc(F)cc2)cc1` the Potency was inconclusive: 29.1 µM [activator, single point]. In the case of `Cc1n[nH]c(C)c1CCCOc1ccccc1`, the Potency is reported as “inactive”. In the case of `Cc1ccc(-c2nc3ccccc3n3c(C)nnc23)cc1`, the Potency is reported as “inactive”. In the case of `C=CCNC(=O)c1ccc(NC(=O)C2=CSCCO2)cc1`, the Potency is reported as inconclusive: 8.2 µM [activator, partial curve]. For `COc1ccc(C)cc1NC(=O)C1CCCN1S(=O)(=O)c1ccc2c(c1)CCC(=O)N2` (stereo not given), the Potency was inconclusive: 23.1 µM [inhibitor, partial curve, poor fit]. With `COc1ccc(-c2nn(-c3ccccc3)cc2/C=C/C(=O)N2CCOCC2)cc1OC` the Potency was active: 1.46 µM. For `O=C(COC(=O)c1cc[n+]([O-])cc1)Nc1cccc(F)c1`, the Potency was inconclusive: 25.9 µM [activator, single point]. In the case of `Clc1ccc(COc2ccccc2-c2ccnc3ncnn23)cc1`, the Potency is reported as inconclusive: 18.3 µM [activator, partial curve]. For `COc1cc(NC(=O)c2cccnc2Sc2ccc(C)c(C)c2)cc(OC)c1OC`, the Potency was inconclusive: 8.2 µM [inhibitor, partial curve]. With `CC(=O)c1cccc(NC(=O)C2CCCN(S(=O)(=O)c3ccc(F)cc3)C2)c1` (stereo not given) the Potency was inconclusive: 20.6 µM [inhibitor, single point]. With `C/C(=N/NC(=O)CNC(=O)c1cccnc1)c1cccc([N+](=O)[O-])c1` the Potency was “inactive”. In the case of `CS(=O)(=O)N(Cc1ccc(C(=O)NCCSCc2ccco2)cc1)c1ccccc1`, the Potency is reported as inconclusive: 14.6 µM [inhibitor, partial curve]. In the case of `O=S(=O)(c1ccc2ccccc2c1)N1C=CC(C(F)(F)F)=NCC1`, the Potency is reported as “inactive”. For `Cc1ccc(-c2cc(-c3ccccc3)nc(N(C)N)n2)cc1`, the Potency was “inactive”. In the case of `COc1cc(OC)c(NC(=O)CS(=O)(=O)Cc2nc(-c3ccc(C)cc3)oc2C)cc1Cl`, the Potency is reported as inconclusive: 14.6 µM [inhibitor, partial curve, poor fit]. In the case of `CN(C)C(CNC(=O)c1ccc2nccnc2c1)c1ccco1` (stereo not given), the Potency is reported as inconclusive: 18.3 µM [activator, single point]. With `CCCCn1c(SCC(=O)c2ccc(OC)cc2OC)nc2cc(S(N)(=O)=O)ccc21` the Potency was inconclusive: 9.2 µM [inhibitor, partial curve]. For `CCOC(=O)/C(=N\Nc1ccccc1Cl)N1CCN(c2ccccc2OC)CC1`, the Potency was inconclusive: 20.6 µM [inhibitor, partial curve, poor fit]. With `O=C(O)Cc1sc(Nc2ccccc2)nc1-c1cccs1` the Potency was inconclusive: 16.4 µM [activator, single point]. With `COc1cc(/C=N/NC(=O)c2nnn(-c3nonc3N)c2C(C)C)ccc1OCc1ccc(F)cc1` the Potency was inconclusive: 29.1 µM [inhibitor, single point]. With `CSc1nc(N)nc(SCC(=O)OC(C)C)c1C#N` the Potency was inconclusive: 20.6 µM [activator, partial curve]. With `CC(=O)NC(CC(=O)c1ccc([N+](=O)[O-])cc1)C(Cl)(Cl)Cl` (stereo not given) the Potency was “inactive”. For `Cc1csc(C(=O)NN)c1N(C)C`, the Potency was “inactive”. In the case of `COc1ccc(/C=C2/CCc3ccccc3C2=O)cc1CN1CCOCC1`, the Potency is reported as inconclusive: 14.6 µM [activator, partial curve]. With `NC(N)=NS(=O)(=O)c1ccc(NC(=S)NC(=O)/C=C/c2ccccc2)cc1` the Potency was “inactive”. For `Cc1ccc(C(=O)N/N=C/c2ccc(-c3ccc(Br)cc3[N+](=O)[O-])o2)o1`, the Potency was inconclusive: 20.6 µM [inhibitor, single point].
